Paper PMC8607231 (Frontiers in Pharmacology, 2021)
Bridges are numbered along the chain shown (N, C = ends).

Test: peptide made by a vendor (Fmoc solid-phase peptide synthesis)
Conditions: analytical RP-HPLC

For “Ac-CPPYLPKYLCDLI-NH2 (disulfide 1-10; lactam 7-11; SMILES CC[C@H](C)[C@H](NC(=O)[C@H](CC(C)C)NC(=O)[C@@H]1CC(=O)NCCCC[C@@H]2NC(=O)[C@@H]3CCCN3C(=O)[C@H](CC(C)C)NC(=O)[C@H](Cc3ccc(O)cc3)NC(=O)[C@@H]3CCCN3C(=O)[C@@H]3CCCN3C(=O)[C@@H](NC(C)=O)CSSC[C@H](NC(=O)[C@H](CC(C)C)NC(=O)[C@H](Cc3ccc(O)cc3)NC2=O)C(=O)N1)C(N)=O)”, the “final HPLC purity” value (oxidative folding step) was 100.00% and the “final HPLC purity” value (whole synthesis) was 96.14%.
